# Test results published in US20130269064A1, “INSECTICIDAL COMPOUNDS” (SYNGENTA PARTICIPATIONS AG, priority 2010, published 2013).
# Some entries share one result that the patent states for a list of compounds.
# Experiments:
# Assay type in all cases: in vivo
# [1] = tested on: Heliothis virescens; experiment: Heliothis virescens (tobacco budworm) egg/artificial diet test; settings: 200 ppm (concentration in well 18 ppm), eggs 0-24 h old on artificial diet, 4 days, egg mortality, larval mortality, growth regulation
# Procedure: Heliothis virescens (Tobacco Budworm): Eggs (0-24 h old) were placed in 24-well microtiter plate on artificial diet and treated with test solutions at an application rate of 200 ppm (concentration in well 18 ppm) by pipetting. After an incubation period of 4 days, samples were checked for egg mortality, larval mortality and growth regulation.
# [2] = tested on: Diabrotica balteata; experiment: Diabrotica balteata (corn root worm) artificial diet test; settings: 200 ppm (concentration in well 18 ppm), L2 larvae, 5 days, larval mortality and growth regulation
# Procedure: Diabrotica balteata (Corn Root Worm): A 24-well microtiter plate (MTP) with artificial diet was treated with test solutions at an application rate of 200 ppm (concentration in well 18 ppm) by pipetting. After drying, the MTP's were infested with larvae (L2) (6-10 per well). After an incubation period of 5 days, samples were checked for larval mortality, and growth regulation.
# [3] = tested on: Spodoptera littoralis; experiment: Spodoptera littoralis (Egyptian cotton leafworm) cotton leaf disc test; settings: 200 ppm sprayed on cotton leaf discs, 5 L1 larvae, mortality, feeding behaviour, growth regulation 3 DAT
# Description: Spodoptera littoralis (Egyptian Cotton Leafworm): Cotton leaf discs were placed on agar in a 24-well microtiter plate and sprayed with test solutions at an application rate of 200 ppm. After drying, the leaf discs were infested with 5 L1 larvae. The samples were checked for mortality, feeding behaviour, and growth regulation 3 days after treatment (DAT).
# [4] = tested on: Plutella xylostella; experiment: Plutella xylostella (diamond back moth) artificial diet test; settings: 200 ppm (concentration in well 18 ppm), L2 larvae, 6 days, larval mortality and growth regulation
# Procedure: Plutella xylostella (Diamond Back Moth): A 24-well microtiter plate (MTP) with artificial diet was treated with test solutions at an application rate of 200 ppm (concentration in well 18 ppm) by pipetting. After drying, the MTP's were infested with L2 larvae (7-12 per well). After an incubation period of 6 days, samples were checked for larval mortality and growth regulation.
# [5] = tested on: Myzus persicae; experiment: Myzus persicae (green peach aphid) sunflower leaf disc test; settings: 200 ppm sprayed on sunflower leaf discs, mixed ages, 6 DAT, mortality
SMILES,control of Heliothis virescens [1],control of Diabrotica balteata [2],control of Spodoptera littoralis [3],control of Plutella xylostella [4],control of Myzus persicae [5]
Cc1ccccc1C(=O)Nc1cccc(C(=O)Nc2c(C(F)(F)F)c(C(F)(F)C(F)(F)F)nn2C)c1F [Compound B2],at least 80%,at least 80%,at least 80%,at least 80%,–
Cn1nc(C(F)(F)C(F)(F)F)c(C(F)(F)F)c1NC(=O)c1cccc(NC(=O)c2ccc(C#N)cc2)c1F [Compound B4],–,–,–,–,at least 80%
Cn1nc(C(F)(F)C(F)(F)F)c(C(F)(F)F)c1NC(=O)c1cccc(NC(=O)c2cc(Cl)ccc2F)c1F [Compound B8],at least 80%,at least 80%,at least 80%,at least 80%,–
Cn1nc(C(F)(F)C(F)(F)F)c(C(F)(F)F)c1NC(=O)c1cccc(NC(=O)c2ccc(OC(F)(F)F)cc2)c1F [Compound B11],at least 80%,at least 80%,at least 80%,at least 80%,–
Cn1nc(C(F)(F)C(F)(F)F)c(C(F)(F)F)c1NC(=O)c1cccc(NC(=O)c2ccc(F)c(C(F)(F)F)c2)c1F [Compound B12],at least 80%,at least 80%,at least 80%,at least 80%,–
Cn1nc(C(F)(F)C(F)(F)F)c(C(F)(F)F)c1NC(=O)c1cccc(NC(=O)c2ccccc2)c1F [Compound B16],–,–,–,–,at least 80%
Cn1nc(C(F)(F)C(F)(F)F)c(C(F)(F)F)c1NC(=O)c1cccc(NC(=O)c2cc(C(F)(F)F)ccc2F)c1F [Compound B23],at least 80%,at least 80%,at least 80%,at least 80%,–
COc1c(NC(=O)c2ccccc2F)cccc1C(=O)Nc1c(C(F)(F)F)c(C(F)(F)C(F)(F)F)nn1C [Compound C1],at least 80%,at least 80%,–,at least 80%,–
COc1c(NC(=O)c2ccc(C#N)cc2)cccc1C(=O)Nc1c(C(F)(F)F)c(C(F)(F)C(F)(F)F)nn1C [Compound C4],–,at least 80%,at least 80%,–,–
COc1c(NC(=O)c2ccc(F)cc2C)cccc1C(=O)Nc1c(C(F)(F)F)c(C(F)(F)C(F)(F)F)nn1C [Compound C7],at least 80%,–,–,–,–
COc1c(NC(=O)c2ccc(F)c(C(F)(F)F)c2)cccc1C(=O)Nc1c(C(F)(F)F)c(C(F)(F)C(F)(F)F)nn1C [Compound C12],–,–,at least 80%,–,–
COc1c(NC(=O)c2ccccc2)cccc1C(=O)Nc1c(C(F)(F)F)c(C(F)(F)C(F)(F)F)nn1C [Compound C16],at least 80%,at least 80%,at least 80%,at least 80%,–
COc1c(NC(=O)c2ccc(F)cc2)cccc1C(=O)Nc1c(C(F)(F)F)c(C(F)(F)C(F)(F)F)nn1C [Compound C17],at least 80%,at least 80%,at least 80%,at least 80%,–
COc1c(NC(=O)c2ccccc2C(F)(F)F)cccc1C(=O)Nc1c(C(F)(F)F)c(C(F)(F)C(F)(F)F)nn1C [Compound C18],at least 80%,–,at least 80%,–,–
COc1c(NC(=O)c2ccc(F)cc2F)cccc1C(=O)Nc1c(C(F)(F)F)c(C(F)(F)C(F)(F)F)nn1C [Compound C22],–,–,at least 80%,–,–
COc1c(NC(=O)c2ccc(C#N)cc2C)cccc1C(=O)Nc1c(C(F)(F)F)c(C(F)(F)C(F)(F)F)nn1C [Compound C24],at least 80%,at least 80%,–,–,–
